Data as given in PubChem BioAssay AID1508588 (Peter MacCallum Cancer Centre, 2020)

Test: 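Knock-downs boosting vemurafenib effects on melanoma cell growth or lactate release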 (primary screen)
System: human WM266.4 melanoma cells (BRAF V600 mutant)
Reagents: siRNA pool against human genes, 40 nM
Time to read-out: 96 h from transfection to read-out
Challenge: vemurafenib 300 nM (about IC25), added 48 h after transfection, for 48 h; comparison arm got DMSO vehicle only
Detection: 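Ratios to non-targeting siRNA for cell gain, counted as DAPI nuclei after minus before drug and averaged over two replicates, and for absorbance-read medium lactate per cell; both binned into fold-change classes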
Scale: cell gain with vemurafenib: higher = more cell gain than with non-targeting siRNA; lactate per cell with vemurafenib: higher = more lactate made per cell
Active means: 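a knock-down counts as enhancing when its fold-change classes with vehicle and with vemurafenib, taken together, show a stronger drug effect on cell gain or lactate per cell; exact class pairs not stated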
Calls: active = enhances vemurafenib effect; inactive = no enhancement seen
Here is an unselected part of about 18,000 deposited reagents. In the full data, 790 (4.4%) were called active. 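Calls rest on a combination of fold-change classes in drug and vehicle arms, not all shown here.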 Entries without a mark were called inactive.

cell gain with vemurafenib,lactate per cell with vemurafenib,target gene
0.43,1.02,NT5DC1
-0.18,1.47,VILL
0.5,1.27,MBP
0.66,0.95,PLK2
0.51,0.91,PILRA
0.52,0.43,ASPA
0.33,1.54,TOLLIP
0.49,0.64,KLC4
0.87,0.66,SVBP
1.18,0.46,TACC3
0.05,2.48,ZNF425
0.14,2.08,NUP93
0.84,0.68,SMN2
1.32,0.7,CLDN19
0.76,1.3,ADAM30
0.95,1.21,LCLAT1
0.46,0.38,NSUN5P2
0.85,0.4,ANAPC4
0.46 (active),0.14,L2HGDH
0.47,0.79,CAMK2D
0.61,0.88,SLC12A2
0.6,1.13,MRTFA
0.57,0.98,CENPL
0.28,1.23,ZNF568
0.36,0.85,TBC1D9
0.13,2.83,SCT
0.72,1.01,CEACAM7
0.32,1.49,PLEKHB1

Next part, starting with the last 7 of the part before.
cell gain with vemurafenib,lactate per cell with vemurafenib,target gene
0.6,1.13,MRTFA
0.57,0.98,CENPL
0.28,1.23,ZNF568
0.36,0.85,TBC1D9
0.13,2.83,SCT
0.72,1.01,CEACAM7
0.32,1.49,PLEKHB1
1,0.67,H2BC12
0.58,0.98,SPTLC2
0.7,0.72,ERC2
0.9,0.76,LLGL1
0.64,1.08,AP4E1
0.52,0.88,PATE1
0.27,1.12,MAS1L
1.04,0.84,GLB1L3
0.26,1.34,ZBED8
0.39,1.01,CENPC
0.71,0.59,ACAT2
1.02,0.74,PRR20A
0.42,2.44,ATP13A4
-0.02,0.64,CCDC34
0.34,1.23,COQ5
0.26,1.86,LSS
0.39,0.66,UGT2B17
0.78,0.66,CTSL
0.82 (active),0.48,KIR3DL2
0.41,0.86,DCAF8L1
0.3,0.5,KARS1
0.3,0.81,DCTN1
0.64,0.76,BEST4
0.51,0.91,ARL5B
1.07,1.21,CAND1
0.93,0.58,ABI3BP
0.55,0.76,B3GNT8
0.46,1.16,MMS22L
0.85,0.88,UFSP2
0.86,0.94,CD248
0.82,0.43,EMILIN2
0.43,1.86,OR13H1
1.37,0.8,SLCO6A1
0.18,1.46,ACTRT1
0.27,1.87,SERPINA6
1.17,0.69,ZNF264
0.5,0.54,AJAP1
0.62,0.8,CRIM1
0.86,0.83,ATP1A1
0.66,1.08,LRR1
0.72,1.36,ARPC5L
0.78,0.52,CPXCR1
0.9,0.31,DYNAP
0.51,1.6,VARS2
-0.11,3.24,ACER1
0.59,0.62,CAMKMT
0.47,0.26,ZBTB5
0.13 (active),0.4,LGI1
0.28,1.19,SLC2A2
0.65,0.99,PPP2R5A
0.73,0.52,WNK2
0.45,1.01,SESTD1
0.19,2.03,RLN2
0.22,1.03,PIGW
0.39,1.73,CXXC4
0.35,0.62,EOLA2
